Experiment [1] concerns the target T1, 5-HT2A receptor (Rattus norvegicus, UniProt P14842).
T1 construct: The supernatant is discarded and the precipitate (membrane receptor) is stocked; from tissue; host or cells: SD rat cerebral cortex membranes
The experiment in a line: In vitro competitive binding test to 5-HT2A receptor ([3H]-Ketanserin, rat cerebral cortex membranes). As to conditions: 10 μmol/L compound; hydrochloride salts; rat cerebral cortex membrane; unit (I %); read-out: 5-HT2A affinity [3H]-Ketanserin (inhibition rate of radioligand binding). On the procedure: (§1) Animals: clean grade SD rats, female and male, 250-300 g, purchased from Nanjing QingLongshan animal breeding center.
(§2) Radioligand: [^3H]-8-OH-DPAT, [^3H]-Ketanserin, purchased from PerkinElmer company; 5-HT and Methysergide, purchased from Sigma company.
(§3) Positive drug: aripiprazole.
Preparation of 5-HT2A buffer solution: Tris (6.05 g) is dissolved in ultrapure water (1000 ml). PH is adjusted to 7.4 with HCl. Tris-HCl buffer solution (0.05M) is used.
(§4) Preparation of radioligand: 50 μl mother liquor is diluted to 5 ml with anhydrous ethanol, and stocked for use.
(§5) Preparation of non-labeling ligand: appropriate amounts of 5-HT and Methysergide are dissolved in ultrapure water to give solutions with final concentrations of 2*10^−5M respectively.
(§6) Preparation of solutions of various test drugs: appropriate amount of each drug is first diluted to 1 ml with ultrapure water as stock solution. When needed, 10 μl of the stock solution is diluted to 1 ml to reach a level of 10^−5M.
(§7) Rats are decapitated to get the brains. […]
(§8) Above tubes are put in 37° C. water bath immediately after finishing adding radioligand into each of them and then incubated for 25 min. […] Radioactivity is determined using liquid scintillation counter. […]

By UniProt entry, the sequences of proteins in these tests, tags left out.
UniProt P14842, whole entry: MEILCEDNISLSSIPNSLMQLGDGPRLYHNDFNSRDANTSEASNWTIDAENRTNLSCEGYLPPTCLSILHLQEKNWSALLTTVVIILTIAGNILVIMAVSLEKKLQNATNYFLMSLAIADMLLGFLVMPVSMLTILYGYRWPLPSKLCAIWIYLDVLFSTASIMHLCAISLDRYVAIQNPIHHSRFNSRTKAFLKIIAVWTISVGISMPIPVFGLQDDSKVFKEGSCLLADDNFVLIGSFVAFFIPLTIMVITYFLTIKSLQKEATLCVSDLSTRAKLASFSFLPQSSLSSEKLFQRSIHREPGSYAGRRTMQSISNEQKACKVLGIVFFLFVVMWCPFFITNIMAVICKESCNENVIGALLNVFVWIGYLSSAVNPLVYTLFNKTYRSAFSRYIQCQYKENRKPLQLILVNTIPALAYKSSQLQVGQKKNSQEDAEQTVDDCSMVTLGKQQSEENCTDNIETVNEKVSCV

Experiment [2] addresses T2, 5-HT1A receptor (Rattus norvegicus, UniProt P19327).
T2 construct: The supernatant is discarded and the precipitate (membrane receptor) is stocked; from tissue; host or cells: SD rat cerebral cortex membranes
T2 sequence (P19327 1-422): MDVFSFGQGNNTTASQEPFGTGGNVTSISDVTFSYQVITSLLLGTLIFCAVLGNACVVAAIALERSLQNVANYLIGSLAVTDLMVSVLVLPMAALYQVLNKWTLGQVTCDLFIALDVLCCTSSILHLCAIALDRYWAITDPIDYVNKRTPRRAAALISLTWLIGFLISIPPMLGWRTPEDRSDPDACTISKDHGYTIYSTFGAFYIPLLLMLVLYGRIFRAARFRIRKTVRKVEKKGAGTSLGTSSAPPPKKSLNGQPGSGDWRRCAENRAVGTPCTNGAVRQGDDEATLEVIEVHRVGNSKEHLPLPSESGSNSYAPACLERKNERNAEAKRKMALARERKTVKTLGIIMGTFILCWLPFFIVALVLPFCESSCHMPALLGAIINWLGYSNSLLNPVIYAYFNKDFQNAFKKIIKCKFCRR
Kind of experiment: In vitro competitive binding test to 5-HT1A receptor ([3H]-8-OH-DPAT, rat cerebral cortex membranes). As to conditions: 10 μmol/L compound; hydrochloride salts; rat cerebral cortex membrane; unit (I %); read-out: 5-HT1A affinity [3H]-8-OH-DPAT (inhibition rate of radioligand binding). As to the method: as §1, §2, §3
Preparation of 5-HT1A buffer solution: Tris-HCl buffer solution (0.05M, 1000 ml) is added with certain amount of ascorbic acid, pargyline and CaCl2, to give final concentrations of 0.1%(ascorbic acid), 10 um (pargyline) and 4 mM (CaCl2) separately.
as §4, §5, §6, §7, §8

What is called inhibition is the change of the read-out against control, counted positive when it falls. On to `O=C1CCc2ccc(OCCCCN3CCN(c4cccc(Cl)c4Cl)CC3)cc2N1` [aripiprazole, reference compound], for which the inhibition at 10 µM in experiment [1] came to 126%; in experiment [2], 118%.

Source of the values: patent publication US9238632B2, “3-cyanoanilinoalkylarylpiperazine derivative and use thereof in preparing drugs” (NHWA Pharma. Corporation, priority 2012, dated 2016).
